Laboratory results reported in the supplement of paper PMC10849652.
This is one part of the list.

By UniProt entry, the sequences of proteins in these tests, tags left out. Where a name states a change or a piece, a line headed by the entry shows the natural chain unless it says otherwise.
UniProt Q8TEL6: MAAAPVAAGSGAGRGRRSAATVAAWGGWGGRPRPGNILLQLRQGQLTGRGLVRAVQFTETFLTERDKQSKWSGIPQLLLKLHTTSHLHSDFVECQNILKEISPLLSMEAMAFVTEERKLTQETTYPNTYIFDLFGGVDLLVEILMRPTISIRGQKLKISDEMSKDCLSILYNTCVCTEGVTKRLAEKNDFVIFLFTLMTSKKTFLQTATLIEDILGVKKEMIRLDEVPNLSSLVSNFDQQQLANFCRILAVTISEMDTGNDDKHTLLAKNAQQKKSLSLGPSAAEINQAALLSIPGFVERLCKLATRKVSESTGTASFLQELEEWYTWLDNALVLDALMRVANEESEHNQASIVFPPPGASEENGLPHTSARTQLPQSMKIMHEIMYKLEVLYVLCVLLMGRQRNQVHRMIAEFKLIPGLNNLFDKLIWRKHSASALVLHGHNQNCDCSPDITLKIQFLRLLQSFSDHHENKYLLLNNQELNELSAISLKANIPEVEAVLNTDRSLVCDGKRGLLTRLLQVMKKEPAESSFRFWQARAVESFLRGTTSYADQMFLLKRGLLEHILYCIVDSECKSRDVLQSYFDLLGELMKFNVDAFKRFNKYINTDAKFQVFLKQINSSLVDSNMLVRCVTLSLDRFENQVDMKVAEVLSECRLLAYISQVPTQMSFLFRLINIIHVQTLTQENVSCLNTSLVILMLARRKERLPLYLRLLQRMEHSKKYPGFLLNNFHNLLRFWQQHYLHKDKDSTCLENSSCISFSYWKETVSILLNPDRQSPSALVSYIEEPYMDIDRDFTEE
UniProt Q13114: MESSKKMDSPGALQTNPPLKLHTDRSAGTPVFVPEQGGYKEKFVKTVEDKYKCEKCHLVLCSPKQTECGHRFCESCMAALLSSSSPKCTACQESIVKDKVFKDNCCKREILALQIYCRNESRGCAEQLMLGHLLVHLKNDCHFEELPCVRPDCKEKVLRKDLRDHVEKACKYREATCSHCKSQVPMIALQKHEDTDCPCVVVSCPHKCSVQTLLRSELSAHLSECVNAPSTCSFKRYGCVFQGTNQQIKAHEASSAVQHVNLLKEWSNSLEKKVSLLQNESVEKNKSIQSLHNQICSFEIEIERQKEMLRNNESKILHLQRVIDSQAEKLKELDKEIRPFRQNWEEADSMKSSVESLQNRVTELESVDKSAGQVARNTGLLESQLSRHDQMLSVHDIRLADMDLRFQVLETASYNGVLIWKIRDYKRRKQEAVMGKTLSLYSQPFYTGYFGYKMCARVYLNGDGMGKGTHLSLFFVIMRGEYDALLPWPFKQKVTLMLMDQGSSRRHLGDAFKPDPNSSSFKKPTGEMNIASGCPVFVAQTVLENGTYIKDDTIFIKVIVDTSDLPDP
UniProt O60784, whole entry, looked up: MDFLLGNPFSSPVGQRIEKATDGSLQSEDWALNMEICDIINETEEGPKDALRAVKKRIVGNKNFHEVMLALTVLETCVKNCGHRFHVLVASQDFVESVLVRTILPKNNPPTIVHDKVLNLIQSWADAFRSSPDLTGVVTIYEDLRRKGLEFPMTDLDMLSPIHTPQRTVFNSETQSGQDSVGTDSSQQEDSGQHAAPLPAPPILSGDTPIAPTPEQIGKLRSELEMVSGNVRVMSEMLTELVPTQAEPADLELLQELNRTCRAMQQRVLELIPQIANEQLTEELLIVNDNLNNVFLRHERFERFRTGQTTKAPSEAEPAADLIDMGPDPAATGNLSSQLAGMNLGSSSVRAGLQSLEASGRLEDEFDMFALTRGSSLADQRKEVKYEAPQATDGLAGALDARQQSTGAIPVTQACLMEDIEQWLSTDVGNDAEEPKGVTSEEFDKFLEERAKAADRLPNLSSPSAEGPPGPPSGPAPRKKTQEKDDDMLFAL
UniProt Q9C035: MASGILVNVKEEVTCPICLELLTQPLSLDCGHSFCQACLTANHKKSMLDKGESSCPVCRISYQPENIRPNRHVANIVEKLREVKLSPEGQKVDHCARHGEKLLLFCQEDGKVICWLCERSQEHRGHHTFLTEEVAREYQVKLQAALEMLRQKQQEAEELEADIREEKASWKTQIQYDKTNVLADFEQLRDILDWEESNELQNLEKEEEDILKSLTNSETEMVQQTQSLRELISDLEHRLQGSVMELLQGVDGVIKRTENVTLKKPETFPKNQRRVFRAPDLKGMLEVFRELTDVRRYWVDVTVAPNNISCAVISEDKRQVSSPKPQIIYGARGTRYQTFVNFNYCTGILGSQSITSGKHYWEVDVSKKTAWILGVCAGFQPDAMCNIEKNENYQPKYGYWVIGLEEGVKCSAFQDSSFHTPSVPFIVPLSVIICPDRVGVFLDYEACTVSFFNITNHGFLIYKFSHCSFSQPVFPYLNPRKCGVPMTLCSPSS
UniProt Q15628: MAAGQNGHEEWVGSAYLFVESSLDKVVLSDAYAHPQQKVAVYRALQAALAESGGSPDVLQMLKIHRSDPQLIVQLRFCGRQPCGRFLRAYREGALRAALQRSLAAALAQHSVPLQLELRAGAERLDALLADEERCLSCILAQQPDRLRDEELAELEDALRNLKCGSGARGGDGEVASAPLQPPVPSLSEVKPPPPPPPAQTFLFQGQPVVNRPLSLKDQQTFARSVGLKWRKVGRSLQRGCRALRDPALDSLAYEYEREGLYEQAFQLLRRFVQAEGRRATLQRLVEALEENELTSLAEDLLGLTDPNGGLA
UniProt Q9BRZ2: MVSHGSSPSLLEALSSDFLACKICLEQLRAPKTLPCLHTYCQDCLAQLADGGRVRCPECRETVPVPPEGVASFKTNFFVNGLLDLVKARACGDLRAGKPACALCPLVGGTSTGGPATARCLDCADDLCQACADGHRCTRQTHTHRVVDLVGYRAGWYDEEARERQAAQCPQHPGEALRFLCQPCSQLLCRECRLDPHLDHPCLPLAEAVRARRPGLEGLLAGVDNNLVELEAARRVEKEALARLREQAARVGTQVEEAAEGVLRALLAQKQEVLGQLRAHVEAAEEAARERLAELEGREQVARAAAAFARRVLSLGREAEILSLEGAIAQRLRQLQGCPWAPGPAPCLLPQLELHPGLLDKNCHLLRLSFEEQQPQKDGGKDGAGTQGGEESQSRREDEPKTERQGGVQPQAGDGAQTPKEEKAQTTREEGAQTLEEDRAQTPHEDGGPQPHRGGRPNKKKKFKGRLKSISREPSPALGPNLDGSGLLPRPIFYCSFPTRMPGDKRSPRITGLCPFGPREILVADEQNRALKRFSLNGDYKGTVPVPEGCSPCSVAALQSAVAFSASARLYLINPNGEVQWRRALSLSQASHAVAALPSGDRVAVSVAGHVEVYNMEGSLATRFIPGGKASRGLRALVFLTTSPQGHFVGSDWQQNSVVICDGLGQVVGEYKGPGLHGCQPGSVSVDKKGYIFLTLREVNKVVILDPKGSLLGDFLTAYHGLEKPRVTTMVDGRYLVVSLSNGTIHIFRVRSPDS
UniProt P49815: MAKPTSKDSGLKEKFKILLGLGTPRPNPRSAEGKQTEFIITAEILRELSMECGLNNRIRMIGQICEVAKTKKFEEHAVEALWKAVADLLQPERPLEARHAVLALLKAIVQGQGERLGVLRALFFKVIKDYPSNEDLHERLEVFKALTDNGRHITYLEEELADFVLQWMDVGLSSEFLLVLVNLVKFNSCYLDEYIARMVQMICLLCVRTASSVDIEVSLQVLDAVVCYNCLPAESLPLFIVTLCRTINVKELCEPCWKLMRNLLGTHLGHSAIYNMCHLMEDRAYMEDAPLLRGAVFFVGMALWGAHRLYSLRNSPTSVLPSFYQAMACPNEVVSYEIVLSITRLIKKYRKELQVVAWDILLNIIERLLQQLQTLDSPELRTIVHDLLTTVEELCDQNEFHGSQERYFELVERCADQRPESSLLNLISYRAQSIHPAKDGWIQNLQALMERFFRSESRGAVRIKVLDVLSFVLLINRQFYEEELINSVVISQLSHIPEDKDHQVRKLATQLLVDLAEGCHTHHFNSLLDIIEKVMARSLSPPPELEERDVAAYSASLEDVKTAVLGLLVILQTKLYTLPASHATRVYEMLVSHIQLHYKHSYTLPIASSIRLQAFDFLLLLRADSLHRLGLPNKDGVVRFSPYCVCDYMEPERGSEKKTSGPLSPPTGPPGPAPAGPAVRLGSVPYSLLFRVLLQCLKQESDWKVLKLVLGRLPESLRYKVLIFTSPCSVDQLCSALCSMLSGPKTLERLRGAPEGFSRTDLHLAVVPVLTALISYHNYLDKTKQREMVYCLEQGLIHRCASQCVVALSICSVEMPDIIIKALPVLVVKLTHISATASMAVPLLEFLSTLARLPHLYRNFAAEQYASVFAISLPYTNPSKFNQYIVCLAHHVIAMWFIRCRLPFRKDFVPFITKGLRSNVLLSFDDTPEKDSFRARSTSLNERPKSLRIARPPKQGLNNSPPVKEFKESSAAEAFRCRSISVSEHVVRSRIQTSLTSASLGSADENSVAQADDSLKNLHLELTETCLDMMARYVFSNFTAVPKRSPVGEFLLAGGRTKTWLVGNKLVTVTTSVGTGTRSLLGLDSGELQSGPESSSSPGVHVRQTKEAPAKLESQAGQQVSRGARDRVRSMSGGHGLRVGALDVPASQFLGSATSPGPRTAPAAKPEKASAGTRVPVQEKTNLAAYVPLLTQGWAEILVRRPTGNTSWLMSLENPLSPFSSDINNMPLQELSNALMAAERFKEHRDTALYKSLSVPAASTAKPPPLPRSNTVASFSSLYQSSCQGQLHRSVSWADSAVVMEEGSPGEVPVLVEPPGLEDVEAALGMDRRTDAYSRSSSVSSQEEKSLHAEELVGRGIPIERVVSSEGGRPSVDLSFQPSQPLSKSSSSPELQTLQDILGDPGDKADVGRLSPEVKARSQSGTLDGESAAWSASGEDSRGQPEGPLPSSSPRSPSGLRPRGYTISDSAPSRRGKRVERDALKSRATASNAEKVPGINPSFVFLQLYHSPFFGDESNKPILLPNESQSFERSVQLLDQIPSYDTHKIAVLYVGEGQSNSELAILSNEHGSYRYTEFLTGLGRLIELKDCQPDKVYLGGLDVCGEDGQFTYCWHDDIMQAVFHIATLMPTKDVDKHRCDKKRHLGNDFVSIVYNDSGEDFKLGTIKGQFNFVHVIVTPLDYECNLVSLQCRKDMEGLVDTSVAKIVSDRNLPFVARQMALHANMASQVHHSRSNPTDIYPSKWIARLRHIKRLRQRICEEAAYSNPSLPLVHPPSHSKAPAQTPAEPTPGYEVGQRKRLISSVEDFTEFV
UniProt Q629K1: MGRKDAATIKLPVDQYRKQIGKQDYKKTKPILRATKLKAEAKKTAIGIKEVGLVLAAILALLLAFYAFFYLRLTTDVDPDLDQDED
UniProt O75865, whole entry, looked up: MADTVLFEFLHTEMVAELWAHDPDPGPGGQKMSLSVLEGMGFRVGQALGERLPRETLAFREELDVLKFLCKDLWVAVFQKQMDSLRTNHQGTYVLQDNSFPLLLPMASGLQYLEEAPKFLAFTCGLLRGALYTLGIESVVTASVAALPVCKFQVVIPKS
UniProt P19474, whole entry, looked up: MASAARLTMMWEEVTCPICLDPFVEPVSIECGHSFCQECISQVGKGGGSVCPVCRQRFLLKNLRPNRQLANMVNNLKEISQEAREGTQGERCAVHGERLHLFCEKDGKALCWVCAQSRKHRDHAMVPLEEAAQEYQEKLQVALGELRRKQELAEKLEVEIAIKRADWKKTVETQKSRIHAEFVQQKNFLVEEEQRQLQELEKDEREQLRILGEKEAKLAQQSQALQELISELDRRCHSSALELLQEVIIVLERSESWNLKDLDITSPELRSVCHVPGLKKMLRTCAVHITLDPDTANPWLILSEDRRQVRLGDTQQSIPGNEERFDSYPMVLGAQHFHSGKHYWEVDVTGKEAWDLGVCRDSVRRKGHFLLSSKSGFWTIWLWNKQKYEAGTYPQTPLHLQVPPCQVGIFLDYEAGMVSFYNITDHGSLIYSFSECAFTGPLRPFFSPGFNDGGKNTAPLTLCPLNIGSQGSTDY
UniProt O43399: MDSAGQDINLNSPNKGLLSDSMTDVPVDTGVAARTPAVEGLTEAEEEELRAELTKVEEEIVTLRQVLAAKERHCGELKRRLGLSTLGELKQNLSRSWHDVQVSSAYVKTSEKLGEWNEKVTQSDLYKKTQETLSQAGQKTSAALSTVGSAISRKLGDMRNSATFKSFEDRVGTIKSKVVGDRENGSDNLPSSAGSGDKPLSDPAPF

Key:
Experiment in all cases: log2 fold change, soluble protein after heating vs DMSO (PISA); higher = thermal stabilisation; K562 cells, 10 uM, 30 min; active = over 0.2 and 3.5 SD of the protein, either way, in both replicates (recomputed)
[1] = compound: C1=CC=C(C=C1)[C@H](COC2=CC3=C(C=C2)NC(=O)N3)NC(=O)C4=CC=CN(C4=O)CC5=CC(=C(C=C5)F)F
How it was run: (§1)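 Values are thermal stability changes relative to control samples and are taken from duplicates. They are stated as log2 fold changes. Before quantification by TMTpro 16plex LC-MS/MS with equalised channel sums, K562 cells at 2×10^6 cells/mL were treated with 10 μM compound for 30 min, heated in aliquots for 3 min across 48°C-58°C, pooled, extracted in PBS with 0.5% NP-40 at 4°C, and centrifuged at 21,000xg for 90 min to give the soluble supernatant.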

[2] = compound: CC1=C(SC2=C1C(=N[C@H](C3=NN=C(N32)C)CC(=O)N)C4=CC=C(C=C4)Cl)C
How it was run: as §1

[3] = compound: CC1=C2C(=CC=C1)N=C(N(C2=O)C3=CC=CC=C3C)CN4C=NC5=C(N=CN=C54)N
How it was run: as §1

[4] = compound: c1ccc([C@@H]2C[C@H]2NC2CCNCC2)cc1
How it was run: as §1

[5] = compound: Cc1sc2c(c1C)C(c1ccc(Cl)cc1)=N[C@@H](CC(=O)OC(C)(C)C)c1nnc(C)n1-2
How it was run: as §1

Measured: log2 fold change

TRAF7 (UniProt Q6Q0C0)
inactive: [1] -0.168 | [2] 0.22 | [3] 0.296 | [4] -0.082

TRPC4AP (UniProt Q8TEL6)
inactive: [3] 0.079 | [5] 0.031

TRAF3 (UniProt Q13114)
inactive: [3] 0.158

TOM1 (UniProt O60784)
inactive: [1] -0.077 | [5] 0.039

TRIM5 (UniProt Q9C035)
inactive: [2] 0.021 | [3] 0.023 | [5] 0.155 | [4] -0.004

TRADD (UniProt Q15628)
inactive: [3] 0.143

TRIM56 (UniProt Q9BRZ2)
inactive: [1] -0.11 | [2] -0.207 | [5] 0.208 | [4] 0.081

TSC2 (UniProt P49815)
inactive: [1] 0.062 | [2] 0.099 | [5] -0.044 | [4] 0.317

TPRKB (UniProt Q9Y3C4)
inactive: [1] -0.006 | [2] 0.016 | [3] 0.066 | [5] -0.048 | [4] 0.009

Two consecutive entries out of the list so far, quoted:
TRIM5 (UniProt Q9C035)
inactive: [2] 0.021 | [3] 0.023 | [5] 0.155 | [4] -0.004

TRADD (UniProt Q15628)
inactive: [3] 0.143

(list continues)

TRIQK (UniProt Q629K1)
inactive: [1] 0.098 | [2] 0.028 | [5] -0.052 | [4] 0.048

TRAPPC6A isoform 2 (UniProt O75865)
inactive: [1] 0.182 | [2] 0 | [4] 0.063

TRIM21 (UniProt P19474)
inactive: [1] -0.153 | [2] 0.069 | [5] -0.019 | [4] -0.241

TPD52L2 isoform 3 (UniProt O43399)
inactive: [3] -0.035 | [5] -0.031
